# According to PubChem BioAssay AID1671190 (National Center for Advancing Translational Sciences (NCATS), 2021):
# Sequences of proteins named here, by UniProt entry; tags and fusion partners are left off. A change or cut given only in a name is not applied to a line headed by its entry.
# UniProt P18054: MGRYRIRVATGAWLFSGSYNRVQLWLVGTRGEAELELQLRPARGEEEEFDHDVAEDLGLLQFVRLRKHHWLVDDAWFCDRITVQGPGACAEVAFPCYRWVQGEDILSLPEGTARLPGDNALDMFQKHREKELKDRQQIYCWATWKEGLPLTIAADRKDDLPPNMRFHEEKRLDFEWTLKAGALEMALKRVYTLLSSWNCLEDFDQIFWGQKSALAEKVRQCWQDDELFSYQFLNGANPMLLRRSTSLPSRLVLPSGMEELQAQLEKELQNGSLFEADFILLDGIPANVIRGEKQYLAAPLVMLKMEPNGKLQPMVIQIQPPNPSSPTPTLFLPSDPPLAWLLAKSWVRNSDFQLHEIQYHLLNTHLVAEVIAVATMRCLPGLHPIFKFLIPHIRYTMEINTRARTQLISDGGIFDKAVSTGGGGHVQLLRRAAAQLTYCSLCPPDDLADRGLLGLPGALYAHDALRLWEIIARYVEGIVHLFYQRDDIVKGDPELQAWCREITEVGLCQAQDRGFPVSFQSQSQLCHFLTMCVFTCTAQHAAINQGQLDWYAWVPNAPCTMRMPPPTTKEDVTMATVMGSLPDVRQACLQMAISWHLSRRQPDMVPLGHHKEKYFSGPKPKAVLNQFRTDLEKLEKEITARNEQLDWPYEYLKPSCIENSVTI
# Screen size: about 580,000 compounds; about 6,100 (1.1%) were called active. The shares of active, inactive and inconclusive entries below differ from those in the screen. Calls follow the shape of the dose curve; as a rule, active = well fitted inhibition curve with a large enough effect; inconclusive = small, poorly fitted or top-dose-only effect, or another doubt; inactive = no such curve, though single readings can be large or run the other way. Where the call is inconclusive, the potency comes from a doubtful curve fit.
# Target: Polyunsaturated fatty acid lipoxygenase ALOX12 (Homo sapiens) (UniProt P18054)
# Assay: Primary qHTS assay for inhibitors of human arachidonate 12S-lipoxygenase (ALOX12): Round 2
# Conditions: purified 12hLO, xylenol orange hydroperoxide absorbance; activity change, negative = inhibition: at 108 µM (top of the series) unless noted
# Method in brief: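 Purified human 12hLO (150 nM final) in 25 mM Hepes, 0.01% Triton X-100, pH 7.0 was preincubated 15 min at room temperature with compound. Then 40 uM arachidonic acid was added, 30 min. Hydroperoxide was read by Fe-XO absorbance ratio 573/405 nm.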
# % is scaled to controls: 0 for no effect and ±100 for the full control effect; potency is read from the fitted curve at half-maximal effect.
SMILES,Potency,"activity change, negative = inhibition"
S=C(Nc1cccc(Cl)c1Cl)Nn1cnnc1,"inconclusive: 50.1 µM [inhibitor, partial curve, poor fit]",–
COc1ccc(NC(=O)c2cccc(-c3ccc(S(=O)(=O)N4CCCC4)cc3)c2)cc1OC,"inconclusive: 112 µM [inhibitor, partial curve, poor fit]",–
COc1ccc(S(=O)(=O)N2CCCCCC2)cc1NC(=O)Cc1n[nH]c(=O)c2ccccc12,"inconclusive: 112 µM [inhibitor, partial curve, poor fit]",–
O=C(NC12CC3CC(CC(C3)C1)C2)N(Cc1ccccc1)Cc1ccncc1,"inconclusive: 100 µM [inhibitor, single point]",–
CC(=O)N(C)c1ccc(C=C2C=Cc3ccccc32)cc1,"inconclusive: 50.1 µM [inhibitor, partial curve, poor fit]",–
COc1ccc2nc(NC(=O)c3nc(SCc4ccccc4F)ncc3Cl)sc2c1,"inconclusive: 15.8 µM [inhibitor, full curve, poor fit]",–
Cc1ccc(C)c2c(=O)c3ccccc3sc12,"inconclusive: 44.7 µM [inhibitor, partial curve, poor fit]",–
Cc1ccc(NC(=S)N2CCC(C(=O)c3ccc(F)cc3)CC2)cc1C,"inconclusive: 44.7 µM [inhibitor, partial curve, poor fit]",–
CC1Cc2ccccc2N1C(=O)CCc1ncc(-c2c(F)cccc2F)o1 (stereo not given),"inconclusive: 0.562 µM [inhibitor, single point]",–
Cc1ccc(CN(C)S(=O)(=O)c2c(C)noc2/C=C/N(C)C)cc1,"inconclusive: 79.4 µM [inhibitor, partial curve, poor fit]",–
COc1ccc(NC(=O)CSc2nc(N)cc(N)n2)cc1S(=O)(=O)N1CCCCC1,"inconclusive: 79.4 µM [inhibitor, single point]",–
O=C(Nc1ccc(Cl)cc1)C1Cc2c(-c3ccc(Cl)cc3)ccnc2O1 (stereo not given),"inconclusive: 56.2 µM [inhibitor, partial curve, poor fit]",–
CCN1C(c2ccccc2)=C(c2ccccc2)S/C1=C/C=C1\SC(=S)N(C)C1=O,"inconclusive: 0.631 µM [inhibitor, full curve, poor fit]",–
O=C(CSc1nnc(-c2cccc(S(=O)(=O)N3CCCCC3)c2)o1)NCCC1=CCCCC1,inactive,–
CN(Cc1ccsc1)C(=O)C1CC=CCC1c1nc2ccccc2s1 (stereo not given),"inconclusive: 50.1 µM [inhibitor, partial curve, poor fit]",–
Oc1cccc(Nc2cnc3ccc(-c4ccc(F)cc4)nn23)c1,"inconclusive: 44.7 µM [inhibitor, full curve]",–
O=C(O)c1ccc(C(F)(F)F)cn1,"inconclusive: 4.47 µM [inhibitor, partial curve, poor fit]",–
COC(=O)c1ccc(C(=O)OC)c(NC(=S)N2CCN(C)CC2)c1,"inconclusive: 89.1 µM [inhibitor, single point]",–
CCOC(=O)N1CCN(CC(O)COc2ccccc2C(C)(C)C)CC1 (stereo not given),"inconclusive: 141 µM [inhibitor, partial curve, poor fit]",–
CCC1CN(C(=O)N2CCC(C(=O)NCc3cccc(C)c3)CC2)c2cc(C)ccc2O1 (stereo not given),"inconclusive: 28.2 µM [inhibitor, single point]",–
O=C(O)Cc1ccc2c(c1)N(S(=O)(=O)c1cccs1)CC(C(=O)O)O2 (stereo not given),"inconclusive: 50.1 µM [inhibitor, partial curve, poor fit]",–
O=C(Nc1ccccc1OC(F)F)C1=NN(C2CCS(=O)(=O)C2)C(=O)CC1 (stereo not given),"inconclusive: 39.8 µM [inhibitor, partial curve, poor fit]",–

SMILES,Potency,"activity change, negative = inhibition"
CNc1ccc2ncc(-c3ccc(OC)c(OC)c3)n2n1,inactive,–
Cn1c(SCc2nc3ccccc3c(=O)[nH]2)nc2ccccc21,inactive,–
CC(NC(=S)NC1CCCC1)c1ccc(C(C)(C)C)cc1 (stereo not given),"inconclusive: 112 µM [inhibitor, partial curve, poor fit]",–
OCCN(CCO)CC(O)COc1ccc(Br)cc1 (stereo not given),"inconclusive: 126 µM [inhibitor, single point]",–
CCn1ncc2c(=O)c(C(=O)c3ccccc3)c[nH]c21,"inconclusive: 79.4 µM [inhibitor, partial curve, poor fit]",–
COc1ccc(-c2nc(C3CC3)nc3c2CN(C(=O)c2ccccn2)CC3)cc1,–,inactive: -17.8% [at 6.33 µM]
CC(/C=N/N1C(=O)CSC1=S)=C\c1ccccc1,"inconclusive: 50.1 µM [inhibitor, partial curve, poor fit]",–
COC(=O)c1sccc1NC(=O)c1csc(C)c1,inactive,–
CN1CCN(C(=O)C2CCCCC2C(=O)O)CC1 (stereo not given),"inconclusive: 31.6 µM [inhibitor, single point]",–
CN1CC(=O)N(c2cccc(F)c2)Cc2c(NC3CCNCC3)ncnc21,"inconclusive: 6.31 µM [inhibitor, full curve]",–
C[S+](=O)([O-])N1CCCC(c2nnc3n2CCNC3)C1 (stereo not given),"inconclusive: 8.91 µM [inhibitor, full curve]",–
Cc1ccc(Nc2nnc(SC3CCOC3=O)s2)cc1 (stereo not given),"inconclusive: 70.8 µM [inhibitor, partial curve, poor fit]",–
Cc1ccccc1N1C(=O)c2cc(S(N)(=O)=O)c(Cl)cc2NC1C (stereo not given),"inconclusive: 3.06 µM [inhibitor, full curve, poor fit]",–
Cc1ccccc1C(=O)NCCc1csc(-c2ccc(C(F)(F)F)cc2)n1,inactive,–
Cn1nccc1C(=O)N1CCCC(c2nn[nH]n2)C1 (stereo not given),"inconclusive: 89.1 µM [inhibitor, partial curve, poor fit]",–
O=C(N/N=C/c1c[nH]c2ccc(Br)cc12)c1ccn(Cc2ccc(Cl)cc2Cl)n1,inactive,–
CCOc1ccc(CC(=O)NCCn2ccn3nc(-c4ccc(C)cc4C)cc3c2=O)cc1,inactive,–
Cc1c(OCc2ccc(C(=O)O)cc2)ccc2c(-c3ccccc3)cc(=O)oc12,"inconclusive: 70.8 µM [inhibitor, partial curve, poor fit]",–
CC1(COc2ccccc2)COc2ccc(C(=O)NCc3ccncc3)cc2N1 (stereo not given),active: 28.2 µM,–
Cc1ccc(CNC(=O)CSc2nc3c(sc4ccccc43)c(=O)n2CCCN2CCCC2)cc1,inactive,–
C#CCN1C(C)=CC(=O)[C@@H](O)[C@H]1c1ccccc1Br,"inconclusive: 89.1 µM [inhibitor, single point]",–
O=C(O)c1cnc(/C=C/c2csc(-c3ccccn3)n2)s1,inactive,–

# Whole records, looked up by structure. Values in the order: Potency	activity change, negative = inhibition
# CN(Cc1ccsc1)C(=O)C1CC=CCC1c1nc2ccccc2s1 (stereo not given) is listed with inconclusive: 50.1 µM [inhibitor, partial curve, poor fit]	–
# OCCN(CCO)CC(O)COc1ccc(Br)cc1 (stereo not given) is listed with inconclusive: 126 µM [inhibitor, single point]	–
# COc1ccc(S(=O)(=O)N2CCCCCC2)cc1NC(=O)Cc1n[nH]c(=O)c2ccccc12 is listed with inconclusive: 112 µM [inhibitor, partial curve, poor fit]	–
# O=C(Nc1ccc(Cl)cc1)C1Cc2c(-c3ccc(Cl)cc3)ccnc2O1 (stereo not given) is listed with inconclusive: 56.2 µM [inhibitor, partial curve, poor fit]	–

# More results follow:

SMILES,Potency,"activity change, negative = inhibition"
COCCn1ccc2ccc(C(=O)NC3CCCc4c3[nH]c3ccccc43)cc21 (stereo not given),active: 39.8 µM,–
COc1ccc(OC)c(-c2nc(C(=O)NC3CCN(Cc4ccccc4)CC3)cc3c2[nH]c2ccccc23)c1,inactive,–
CCN(C(=O)CN1CCN(c2ccc(O)cc2)CC1)c1c(N)n(Cc2ccccc2)c(=O)[nH]c1=O,"inconclusive: 44.7 µM [inhibitor, partial curve]",–
N#C/C(=C/c1cccc(F)c1)C(=O)c1c[nH]c2cc(F)ccc12,"inconclusive: 56.2 µM [inhibitor, partial curve, poor fit]",–
COc1ccc(CNc2nc3ccccc3n2CCN2CCCCC2)cc1,"inconclusive: 3.98 µM [inhibitor, full curve, poor fit]",–
Cc1ccc(-c2noc(CN(C)C(=O)COc3ccccc3)n2)cc1,"inconclusive: 44.7 µM [inhibitor, partial curve, poor fit]",–
CC(C)Cn1c(C23CC4CC(CC(C4)C2)C3)n[nH]c1=S,active: 28.2 µM,–
O=C1C(=O)N(CCN2CCOCC2)C(c2ccccn2)/C1=C(/O)c1ccc(F)cc1 (stereo not given),inactive,–
CCCC(=O)C(C)=O,"inconclusive: 14.1 µM [inhibitor, partial curve, poor fit]",–
COc1ccccc1C(C)N(C)C(=O)c1cccc(CCC(C)(C)O)c1 (stereo not given),inactive,–
C=CCOC(=O)C1=C[C@H](c2csc3ccccc23)C[C@H](OCCCCO)O1,"inconclusive: 44.7 µM [inhibitor, partial curve, poor fit]",–
CC[C@H](NC(C)C)[C@H](O)c1ccc(O)c2[nH]c(=O)ccc12,inactive,–
C(=N\N(Cc1ccccc1)c1ccccc1)/c1cccnc1,"inconclusive: 50.1 µM [inhibitor, partial curve, poor fit]",–
CCn1c(C(=O)N2CCC(C(=O)NCCCSC3CCCCC3)CC2)cc2sccc21,inactive,–
Cn1c(=O)c2c(nc(SCc3cccc(F)c3)n2Cc2ccccc2)n(C)c1=O,"inconclusive: 112 µM [inhibitor, single point]",–
O=C(Nc1ccc2oc(-c3ccncc3)nc2c1)c1ccco1,"inconclusive: 50.1 µM [inhibitor, partial curve, poor fit]",–
Cc1cccc(C(=O)N(Cc2ccco2)c2ccccn2)c1,"inconclusive: 158 µM [inhibitor, single point]",–
CC1(C)Oc2ccc3ccc(=O)oc3c2/C(=C/O)C1=O,"inconclusive: 2.51 µM [inhibitor, partial curve, poor fit]",–
Cc1ccsc1C(=O)NC1CCCN(Cc2ccc(Cl)cc2)C1 (stereo not given),"inconclusive: 44.7 µM [inhibitor, partial curve, poor fit]",–
CC1(C)CN(c2ccc(Br)cc2Br)C1=O,"inconclusive: 112 µM [inhibitor, partial curve, poor fit]",–
Cc1ccc(CNC(=O)c2scnc2C)cn1,"inconclusive: 15.8 µM [inhibitor, partial curve, poor fit]",–
